No constants are given. Whether binding was seen depends on the method and setting. Some binding calls cover weakened binding; strength is not graded here. For some of these results: Tags and fused reporters may be left off the sequences shown. Values belong to the binder of their own block, whether it stands above or below them.
Columns and labels:
[1] = target: cynomolgus monkey TIGIT ECD-mFc (extracellular domain of cynomolgus monkey TIGIT and mouse IgG2a Fc fragment) (cynomolgus monkey); assay: ELISA
[2] = target: human TIGIT ECD-mFc (fusion protein of extracellular domain of human TIGIT and mouse IgG2a Fc fragment) (human); assay: ELISA
[3] = target: full-length human TIGIT on CHO-K1 cells (CHO-K1 human TIGIT) (human) (UniProt Q495A1); assay: FACS; cells with high, medium and low expression of human TIGIT
[4] = target: cynomolgus monkey TIGIT ECD-mFc (extracellular domain of cynomolgus monkey TIGIT and mouse IgG2a Fc fragment) (cynomolgus monkey); assay: summary of ELISA and FACS on cynomolgus monkey TIGIT
[5] = target: TIGIT on human PBMCs stimulated by SEA (human) (UniProt Q495A1); assay: flow cytometry on human PBMCs stimulated by SEA (summary of Example 8)
[6] = target: T1, human TIGIT ECD-his (fusion protein of extracellular domain of human TIGIT and His-tag) (human); assay: BIAcore, ELISA, FACS (summary of Table 18)
T1 sequence: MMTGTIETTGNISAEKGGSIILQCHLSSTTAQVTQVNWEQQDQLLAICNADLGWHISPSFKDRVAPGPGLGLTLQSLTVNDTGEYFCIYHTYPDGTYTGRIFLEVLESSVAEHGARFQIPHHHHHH

[7] = target: full-length human TIGIT on CHO-K1 cells (CHO-K1 human TIGIT) (human) (UniProt Q495A1); assay: FACS; high, medium and low expression strains
[8] = target: cynomolgus monkey PVRIG (Novoprotein, Cat NO. C09B) (cynomolgus monkey); assay: ELISA, coated cynomolgus monkey PVRIG
[9] = target: cynomolgus monkey PVRIG (Novoprotein, Cat NO. C09B) (cynomolgus monkey); assay: ELISA

B4: PVRIG-A50 (VHH, not shown: a dimerising Fc or GST)
VHH: EVQLVESGGGLVQPGGSLRLSCAASGFTFSYYDMSWVRQAPGKGLEWVSTINSNGGRTSYVDSVKGRFTISRDNTKNTLYLQMNSLKPEDTAVYYCVEGDPHNFGLENLSLRDFGSWGQGTQVTVSS
- binding [9]: binds

B6: PVRIG-A105 (VHH, not shown: a dimerising Fc or GST)
VHH: EVQLVESGGGLVQAGGSLRLSCAASGRTFDRHTMTWFRQAPGKEREFVATASRIPGDTYYSHSVKGRFTISRDNAKNTVYLQLNNLKPEDTAVYYCAATSAYCSEVDCYEKGSWYDNWGQGIQVTVSS
- binding [9]: binds

B7: PVRIG-A43 (VHH, not shown: a dimerising Fc or GST)
VHH: QVQLVESGGGLVQSGGSLRLSCAASGRTRSMYVMGWFRQAPGKEREFVGRIKWSGDTTYTSYADFVKGRFTLYGNQARNTVYLQMNSLKVEDTAVYYCAGRVVPLPSRQRDRYDYWGQGTQVTVSS
- binding [9]: binds

B9: PVRIG-A15 (VHH, not shown: a dimerising Fc or GST)
VHH: QVQLVESGGGLVQAGGSLRLSCVASGRTFSANTMAWFRQAPGKEREFVAYTRWTDDNTDYASYADFVKGRFTAFRDNTRNTMYLQMNRLRPEDTAVYYCAAATTRGTYYSAGDYNSWGQGTQVTVSS
- binding [9]: binds

B10: SRF813-hIgG1 (antibody, V domains shown)
VH: QVQLVQSGAEVKKPGSSVKVSCKASGGTFSSAAISWVRQAPGQGLEWMGNIIPIVGIANYAQKFQGRVTITADESTSTAYMELSSLRSEDTAVYYCARDTGRGYTRHFWFDPWGQGTLVTVSS
VL: DIQMTQSPSSLSASVGDRVTITCRASQSISSYLNWYQQKPGKAPKLLIYAASSLQSGVPSRFSGSGSGTDFTLTISSLQPEDFATYYCQQSDILYTFGGGTKVEIK
- binding [8]: binds

B11: PVRIG-A75 (VHH, not shown: a dimerising Fc or GST)
VHH: QLQLVESGGGLVQSGGSLRLSCAASGRTRSMYVMGWFRQAPGKEREFVGRIKWSGDTTYTSYADFVKGRFTLYGNQARNTVYLQMNSLKPEDTAVYSCAASKFPVSGVPEHYDYWGQGTQVTVSS
- binding [9]: binds

B12: PVRIG-A11 (VHH, not shown: a dimerising Fc or GST)
VHH: QLQLVESGGGLVQPGGSLRLSCAASGFTDDYYAIGWFRQAPGKEREGVSCISGSGGSTNYEDSVKGRFAISRDNAKNMVYLQMNDLKPEDTAVYYCAADPFWSAPCTGHNDRYFDVWGQGTLVTVSS
- binding [9]: binds

B13: PVRIG-A117 (VHH, not shown: a dimerising Fc or GST)
VHH: EVQVVESGGGLVQAGGSLRLSCTASEHIYDLYIMGWYRQAPGKDRELVATITYTGSIYIADSVKDRFTISRGNAKNTVSLQMSGLKPEDTAVYYCNADPSGLGRKLYWGQGTQVTVSS
- binding [9]: binds

More lines, now with the values ahead:

- binding [1]: binds
- binding [2]: binds
- binding [3]: binds
- binding [4]: binds
- binding [5]: binds
- binding [6]: binds
- binding [7]: binds
B1: TIGIT-006-H5L3 (antibody, V domains shown)
VH: EVQLQESGPGLVKPSETLSLTCAVSGYSMTSDYWNWIRQPPGKKLEYIGYISYSGRTYYNPSLKSRVTISRDTSKNQFSLKLSSVTAADTAVYYCARGDYSNYGGAMYDWGQGTTVTVSS
VL: DIVMTQSPDSLAVSLGERATINCRASQGVSTTIAWYQQKPGQSPKLLIYSASYRYTGVPRFSGSGSGTDFTLTISSLQAEDVAVYYCQQYYSSPFTFGGGTKVEIK

- binding [8]: binds
B2: COM701-hIgG4 (antibody, V domains shown)
VH: QVQLVQSGAEVKKPGASVKVSCKASGYTFTDYNINWVRQAPGQGLEWMGYIYPYIGGSGYAQKFQGRVTMTRDTSTSTVYMELSSLRSEDTAVYYCAREDKTARNAMDYWGQGTLVTVSS
VL: DIQMTQSPSSLSASVGDRVTITCRVSENIYSNLAWYQQKPGKAPKLLIYEATNLAEGVPSRFSGSGSGTDFTLTISSLQPEDFATYYCQHFWGTPYTFGQGTKLEIK

- binding [8]: binds
B3: COM701-hIgG1 (antibody, V domains shown)
VH: QVQLVQSGAEVKKPGASVKVSCKASGYTFTDYNINWVRQAPGQGLEWMGYIYPYIGGSGYAQKFQGRVTMTRDTSTSTVYMELSSLRSEDTAVYYCAREDKTARNAMDYWGQGTLVTVSS
VL: DIQMTQSPSSLSASVGDRVTITCRVSENIYSNLAWYQQKPGKAPKLLIYEATNLAEGVPSRFSGSGSGTDFTLTISSLQPEDFATYYCQHFWGTPYTFGQGTKLEIK

- binding [9]: binds
B5: PVRIG-A118 (VHH, not shown: a dimerising Fc or GST)
VHH: QVQLVESGGGLVQAGGSLRLSCAASETYFDLYVMGWYRQAPGKDRELVATITYTGSIKIVDSVKDRFTISRGDAKNTVSLQMSSLKPEDTAVYFCNADPSGLGRKVYWGQGTQVTVSS

- binding [9]: binds
B8: PVRIG-A113 (VHH, not shown: a dimerising Fc or GST)
VHH: QLQLVESGGGLVQSGGSLRLSCAASGRTRSMYVMGWFRQAPGKEREFVGRIKWSGDTTYTSYADFVKGRFTLYGNQARNTVYLQMNSLKPEDTAVYYCAALPSDYDYRAASYGVDYWGKGTLVTVSS

— patent US20240343803A1
